Assay results from publication PMC5461494.
No constants are given. Whether binding was seen depends on the method and setting. In cells and extracts the contact can be indirect. Some entries that bind do so weakly or less than the wild type. Blank lines part the entries; values can stand above or below the binder they belong to.

Chains of the proteins cited; added tags and fusions are not shown.
UniProt Q14676: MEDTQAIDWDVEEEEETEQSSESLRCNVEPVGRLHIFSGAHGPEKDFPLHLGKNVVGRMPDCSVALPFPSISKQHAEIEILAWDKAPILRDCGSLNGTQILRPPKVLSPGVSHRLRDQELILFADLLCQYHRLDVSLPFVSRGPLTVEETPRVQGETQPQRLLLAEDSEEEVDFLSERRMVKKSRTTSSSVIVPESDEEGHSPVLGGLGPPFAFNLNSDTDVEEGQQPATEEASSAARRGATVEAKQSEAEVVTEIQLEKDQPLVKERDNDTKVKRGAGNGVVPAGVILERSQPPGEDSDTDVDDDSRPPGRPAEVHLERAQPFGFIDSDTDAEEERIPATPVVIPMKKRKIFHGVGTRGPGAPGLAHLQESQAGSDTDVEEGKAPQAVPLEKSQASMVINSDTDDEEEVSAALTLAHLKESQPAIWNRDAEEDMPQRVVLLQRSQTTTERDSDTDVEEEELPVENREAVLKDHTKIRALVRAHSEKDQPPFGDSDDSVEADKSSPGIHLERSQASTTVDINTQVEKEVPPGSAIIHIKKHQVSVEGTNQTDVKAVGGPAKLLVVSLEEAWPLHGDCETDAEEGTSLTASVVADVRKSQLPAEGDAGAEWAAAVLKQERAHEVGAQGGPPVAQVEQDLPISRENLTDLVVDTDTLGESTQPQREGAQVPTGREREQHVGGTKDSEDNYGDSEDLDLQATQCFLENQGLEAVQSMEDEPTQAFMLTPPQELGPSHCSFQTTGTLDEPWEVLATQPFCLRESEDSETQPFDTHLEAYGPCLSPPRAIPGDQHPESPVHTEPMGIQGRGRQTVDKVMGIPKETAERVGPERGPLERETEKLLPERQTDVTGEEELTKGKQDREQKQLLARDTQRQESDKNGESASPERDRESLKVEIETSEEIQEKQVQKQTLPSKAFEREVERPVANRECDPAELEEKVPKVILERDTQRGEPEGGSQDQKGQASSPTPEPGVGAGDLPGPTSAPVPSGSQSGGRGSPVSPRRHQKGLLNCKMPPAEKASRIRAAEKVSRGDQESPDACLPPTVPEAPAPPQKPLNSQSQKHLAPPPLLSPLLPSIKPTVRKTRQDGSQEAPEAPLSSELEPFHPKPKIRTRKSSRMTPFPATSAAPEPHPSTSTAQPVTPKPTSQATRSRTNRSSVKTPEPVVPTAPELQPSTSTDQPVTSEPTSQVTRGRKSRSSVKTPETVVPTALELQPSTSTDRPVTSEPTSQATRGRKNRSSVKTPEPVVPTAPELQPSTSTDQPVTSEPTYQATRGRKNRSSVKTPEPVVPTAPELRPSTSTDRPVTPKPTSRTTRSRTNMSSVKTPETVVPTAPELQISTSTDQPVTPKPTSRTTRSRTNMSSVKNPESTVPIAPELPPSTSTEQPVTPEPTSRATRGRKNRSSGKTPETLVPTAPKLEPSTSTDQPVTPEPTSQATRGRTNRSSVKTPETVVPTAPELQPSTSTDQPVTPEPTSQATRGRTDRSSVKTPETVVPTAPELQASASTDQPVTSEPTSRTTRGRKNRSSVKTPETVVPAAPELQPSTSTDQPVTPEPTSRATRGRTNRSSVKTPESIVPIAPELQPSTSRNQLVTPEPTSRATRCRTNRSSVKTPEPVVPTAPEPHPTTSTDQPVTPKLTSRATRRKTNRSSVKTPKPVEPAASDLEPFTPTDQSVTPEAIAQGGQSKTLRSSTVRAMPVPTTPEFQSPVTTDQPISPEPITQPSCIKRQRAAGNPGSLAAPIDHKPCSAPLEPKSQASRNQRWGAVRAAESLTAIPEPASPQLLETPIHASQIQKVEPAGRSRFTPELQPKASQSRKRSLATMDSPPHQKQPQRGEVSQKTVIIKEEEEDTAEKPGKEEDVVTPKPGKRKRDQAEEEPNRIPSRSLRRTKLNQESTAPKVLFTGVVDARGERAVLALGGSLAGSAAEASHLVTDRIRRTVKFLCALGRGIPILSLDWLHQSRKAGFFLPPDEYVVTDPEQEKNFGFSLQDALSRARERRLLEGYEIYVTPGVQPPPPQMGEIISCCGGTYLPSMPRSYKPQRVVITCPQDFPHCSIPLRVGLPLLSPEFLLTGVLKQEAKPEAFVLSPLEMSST

Experiments:
[1] = biological target: T1, Receptor-associated protein 80 (RAP80) (human (endogenous in EFO-27)) (UniProt Q96RL1); test: co-IP; endogenous proteins, EFO-27 cell lysates (control or USP13 knockout), RAP80 or USP13 antibody or control IgG, NETN buffer, 4 h at 4 °C
T1 sequence: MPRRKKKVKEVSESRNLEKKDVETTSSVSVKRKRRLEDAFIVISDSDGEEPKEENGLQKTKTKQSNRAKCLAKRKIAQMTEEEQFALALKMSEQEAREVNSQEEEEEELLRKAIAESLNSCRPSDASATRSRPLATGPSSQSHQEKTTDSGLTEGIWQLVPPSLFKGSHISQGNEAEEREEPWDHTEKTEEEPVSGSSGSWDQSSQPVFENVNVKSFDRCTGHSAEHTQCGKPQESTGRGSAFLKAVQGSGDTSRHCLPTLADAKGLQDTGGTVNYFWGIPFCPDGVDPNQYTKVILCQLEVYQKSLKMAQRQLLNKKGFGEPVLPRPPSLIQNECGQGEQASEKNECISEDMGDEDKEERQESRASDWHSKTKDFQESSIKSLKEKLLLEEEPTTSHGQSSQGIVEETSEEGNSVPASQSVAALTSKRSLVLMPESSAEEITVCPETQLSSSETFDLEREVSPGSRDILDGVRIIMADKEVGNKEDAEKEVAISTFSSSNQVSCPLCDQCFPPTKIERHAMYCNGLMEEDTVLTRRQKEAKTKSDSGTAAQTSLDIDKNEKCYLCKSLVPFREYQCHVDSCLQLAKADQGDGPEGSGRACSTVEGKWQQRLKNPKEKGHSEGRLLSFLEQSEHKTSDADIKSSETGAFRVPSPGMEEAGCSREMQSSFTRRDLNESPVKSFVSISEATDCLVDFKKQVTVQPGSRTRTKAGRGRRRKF

HA-MDC1 = HA-MDC1 (UniProt Q14676); test: co-IP; HEK293T cells transfected with HA-MDC1 or its deletion mutants, untreated or treated with cisplatin; immunoprecipitation with HA antibody
[2] = biological target: T2, USP13 (human (endogenous in EFO-27)) (UniProt Q92995); test: co-IP; endogenous proteins, EFO-27 cell lysates (control or USP13 knockout), RAP80 or USP13 antibody or control IgG, NETN buffer, 4 h at 4 °C
T2 sequence: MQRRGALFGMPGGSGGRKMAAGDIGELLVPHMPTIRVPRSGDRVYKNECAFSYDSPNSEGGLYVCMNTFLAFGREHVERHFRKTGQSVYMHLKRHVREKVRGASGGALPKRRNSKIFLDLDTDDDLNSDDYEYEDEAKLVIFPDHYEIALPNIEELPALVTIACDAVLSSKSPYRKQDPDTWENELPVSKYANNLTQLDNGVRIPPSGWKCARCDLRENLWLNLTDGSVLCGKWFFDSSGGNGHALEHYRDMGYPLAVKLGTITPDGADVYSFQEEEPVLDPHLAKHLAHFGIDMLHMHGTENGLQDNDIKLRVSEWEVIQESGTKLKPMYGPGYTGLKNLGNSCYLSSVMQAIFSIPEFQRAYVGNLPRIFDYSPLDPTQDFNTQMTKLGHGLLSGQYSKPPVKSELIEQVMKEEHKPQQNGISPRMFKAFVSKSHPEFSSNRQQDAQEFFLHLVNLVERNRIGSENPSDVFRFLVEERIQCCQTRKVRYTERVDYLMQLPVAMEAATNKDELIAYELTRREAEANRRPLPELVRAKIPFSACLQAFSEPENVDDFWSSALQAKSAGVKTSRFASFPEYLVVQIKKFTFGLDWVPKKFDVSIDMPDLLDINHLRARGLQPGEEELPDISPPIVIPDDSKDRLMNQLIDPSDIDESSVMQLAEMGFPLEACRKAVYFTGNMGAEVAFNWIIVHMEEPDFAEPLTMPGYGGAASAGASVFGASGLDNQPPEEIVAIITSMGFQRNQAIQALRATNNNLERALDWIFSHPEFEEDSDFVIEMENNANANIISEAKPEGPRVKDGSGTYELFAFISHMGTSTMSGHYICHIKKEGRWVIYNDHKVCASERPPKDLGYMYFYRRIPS

binding [1]: binds
B1: USP13 (enzyme, UniProt Q92995 1-863)
chain: MQRRGALFGMPGGSGGRKMAAGDIGELLVPHMPTIRVPRSGDRVYKNECAFSYDSPNSEGGLYVCMNTFLAFGREHVERHFRKTGQSVYMHLKRHVREKVRGASGGALPKRRNSKIFLDLDTDDDLNSDDYEYEDEAKLVIFPDHYEIALPNIEELPALVTIACDAVLSSKSPYRKQDPDTWENELPVSKYANNLTQLDNGVRIPPSGWKCARCDLRENLWLNLTDGSVLCGKWFFDSSGGNGHALEHYRDMGYPLAVKLGTITPDGADVYSFQEEEPVLDPHLAKHLAHFGIDMLHMHGTENGLQDNDIKLRVSEWEVIQESGTKLKPMYGPGYTGLKNLGNSCYLSSVMQAIFSIPEFQRAYVGNLPRIFDYSPLDPTQDFNTQMTKLGHGLLSGQYSKPPVKSELIEQVMKEEHKPQQNGISPRMFKAFVSKSHPEFSSNRQQDAQEFFLHLVNLVERNRIGSENPSDVFRFLVEERIQCCQTRKVRYTERVDYLMQLPVAMEAATNKDELIAYELTRREAEANRRPLPELVRAKIPFSACLQAFSEPENVDDFWSSALQAKSAGVKTSRFASFPEYLVVQIKKFTFGLDWVPKKFDVSIDMPDLLDINHLRARGLQPGEEELPDISPPIVIPDDSKDRLMNQLIDPSDIDESSVMQLAEMGFPLEACRKAVYFTGNMGAEVAFNWIIVHMEEPDFAEPLTMPGYGGAASAGASVFGASGLDNQPPEEIVAIITSMGFQRNQAIQALRATNNNLERALDWIFSHPEFEEDSDFVIEMENNANANIISEAKPEGPRVKDGSGTYELFAFISHMGTSTMSGHYICHIKKEGRWVIYNDHKVCASERPPKDLGYMYFYRRIPS

binding (HA-MDC1): binds
B2: USP13 (in HEK293T lysate) (enzyme, UniProt Q92995 1-863)
chain: MQRRGALFGMPGGSGGRKMAAGDIGELLVPHMPTIRVPRSGDRVYKNECAFSYDSPNSEGGLYVCMNTFLAFGREHVERHFRKTGQSVYMHLKRHVREKVRGASGGALPKRRNSKIFLDLDTDDDLNSDDYEYEDEAKLVIFPDHYEIALPNIEELPALVTIACDAVLSSKSPYRKQDPDTWENELPVSKYANNLTQLDNGVRIPPSGWKCARCDLRENLWLNLTDGSVLCGKWFFDSSGGNGHALEHYRDMGYPLAVKLGTITPDGADVYSFQEEEPVLDPHLAKHLAHFGIDMLHMHGTENGLQDNDIKLRVSEWEVIQESGTKLKPMYGPGYTGLKNLGNSCYLSSVMQAIFSIPEFQRAYVGNLPRIFDYSPLDPTQDFNTQMTKLGHGLLSGQYSKPPVKSELIEQVMKEEHKPQQNGISPRMFKAFVSKSHPEFSSNRQQDAQEFFLHLVNLVERNRIGSENPSDVFRFLVEERIQCCQTRKVRYTERVDYLMQLPVAMEAATNKDELIAYELTRREAEANRRPLPELVRAKIPFSACLQAFSEPENVDDFWSSALQAKSAGVKTSRFASFPEYLVVQIKKFTFGLDWVPKKFDVSIDMPDLLDINHLRARGLQPGEEELPDISPPIVIPDDSKDRLMNQLIDPSDIDESSVMQLAEMGFPLEACRKAVYFTGNMGAEVAFNWIIVHMEEPDFAEPLTMPGYGGAASAGASVFGASGLDNQPPEEIVAIITSMGFQRNQAIQALRATNNNLERALDWIFSHPEFEEDSDFVIEMENNANANIISEAKPEGPRVKDGSGTYELFAFISHMGTSTMSGHYICHIKKEGRWVIYNDHKVCASERPPKDLGYMYFYRRIPS

binding [2]: binds
B3: Receptor-associated protein 80 (RAP80) (protein, UniProt Q96RL1 1-719)
chain: MPRRKKKVKEVSESRNLEKKDVETTSSVSVKRKRRLEDAFIVISDSDGEEPKEENGLQKTKTKQSNRAKCLAKRKIAQMTEEEQFALALKMSEQEAREVNSQEEEEEELLRKAIAESLNSCRPSDASATRSRPLATGPSSQSHQEKTTDSGLTEGIWQLVPPSLFKGSHISQGNEAEEREEPWDHTEKTEEEPVSGSSGSWDQSSQPVFENVNVKSFDRCTGHSAEHTQCGKPQESTGRGSAFLKAVQGSGDTSRHCLPTLADAKGLQDTGGTVNYFWGIPFCPDGVDPNQYTKVILCQLEVYQKSLKMAQRQLLNKKGFGEPVLPRPPSLIQNECGQGEQASEKNECISEDMGDEDKEERQESRASDWHSKTKDFQESSIKSLKEKLLLEEEPTTSHGQSSQGIVEETSEEGNSVPASQSVAALTSKRSLVLMPESSAEEITVCPETQLSSSETFDLEREVSPGSRDILDGVRIIMADKEVGNKEDAEKEVAISTFSSSNQVSCPLCDQCFPPTKIERHAMYCNGLMEEDTVLTRRQKEAKTKSDSGTAAQTSLDIDKNEKCYLCKSLVPFREYQCHVDSCLQLAKADQGDGPEGSGRACSTVEGKWQQRLKNPKEKGHSEGRLLSFLEQSEHKTSDADIKSSETGAFRVPSPGMEEAGCSREMQSSFTRRDLNESPVKSFVSISEATDCLVDFKKQVTVQPGSRTRTKAGRGRRRKF
